PubChem BioAssay AID1259308, NCATS – 2017
The deposit covers about 59,000 reagents; this is an unselected part. About 1,510 of them (2.6%) were called active. 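Calls use total luciferase alone and ignore viability, so some active siRNAs may act by altering cell number.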 Unmarked entries are inactive. The numbers tell different reagents against one gene apart. Further read-outs or replicates are left out here.

Screen: 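Candidate targets for better recombinant protein yield in mammalian cells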 (primary screen)
Cell system: human HEK293 embryonic kidney cells stably expressing firefly luciferase (HEK-CMV-Luc2-Hygro)
Knock-down reagent: single siRNA against human genes, 0.8 pmol siRNA per well
Time to read-out: 72 h
Measured: 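Reporter luminescence and viable-cell signal on separate replicate plates, given as percent of non-targeting control and median/MAD z-scores, plus per-cell luciferase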
Scale: total luciferase, z-score: higher = more reporter protein produced
Call rule: 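Active when the median/MAD z-score for overall luciferase is greater than 3; a gene was taken forward for validation with new siRNAs if at least two of its three siRNAs passed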
Calls: active = raised luciferase; inactive = no rise

total luciferase, z-score, by gene symbol and reagent
LAMTOR5 (late endosomal/lysosomal adaptor, MAPK and MTOR activator 5): #1 -0.273; #2 1.59; #3 -1.49
CYP26A1 (cytochrome P450 family 26 subfamily A member 1): #1 -0.277; #2 0.354; #3 0.797
LZTS1 (leucine zipper tumor suppressor 1): #1 1.81; #2 -0.686; #3 -0.49
TEX15 (testis expressed 15, meiosis and synapsis associated): #1 -1.86; #2 -0.518; #3 -0.00823
C15orf40 (chromosome 15 open reading frame 40): #1 -0.527; #2 0.196; #3 0.471
IFI27L1 (interferon alpha inducible protein 27 like 1): #1 -0.406; #2 3.2 (active); #3 1.46
EPB41L5 (erythrocyte membrane protein band 4.1 like 5): #1 3.07 (active); #2 -0.105; #3 0.549
NAGLU (N-acetyl-alpha-glucosaminidase): #1 2.06; #2 0.284; #3 -1.31

Laid out differently: entries from further up.
{"gene symbol":"LAMTOR5 (late endosomal/lysosomal adaptor, MAPK and MTOR activator 5)","reagent":3,"total luciferase, z-score":-1.49}
{"gene symbol":"CYP26A1 (cytochrome P450 family 26 subfamily A member 1)","reagent":1,"total luciferase, z-score":-0.277}
{"gene symbol":"CYP26A1 (cytochrome P450 family 26 subfamily A member 1)","reagent":2,"total luciferase, z-score":0.354}
{"gene symbol":"CYP26A1 (cytochrome P450 family 26 subfamily A member 1)","reagent":3,"total luciferase, z-score":0.797}
{"gene symbol":"LZTS1 (leucine zipper tumor suppressor 1)","reagent":1,"total luciferase, z-score":1.81}
{"gene symbol":"LZTS1 (leucine zipper tumor suppressor 1)","reagent":2,"total luciferase, z-score":-0.686}

The listing continues.
total luciferase, z-score, by gene symbol and reagent
TIGIT (T cell immunoreceptor with Ig and ITIM domains): #1 -1.1; #2 1.35; #3 1.14
BTBD19 (BTB domain containing 19): #1 -1.76; #2 -1.73; #3 -1.04
FAM215B (family with sequence similarity 215 member B): #1 0.7; #2 -1.87; #3 -0.0529
PPIAP8 (peptidylprolyl isomerase A pseudogene 8): #1 1.97; #2 1.9; #3 -0.667
SPATA6 (spermatogenesis associated 6): #1 -0.758; #2 0.362; #3 0.542
